Among the data in publication PMC7036369 are binding values, retold here.

These are yes or no findings as the source states them, for the method shown. A result given as binding can be weak or reduced; the word gives no strength. For part of these data: Binding seen in cells or lysates may run through a third protein. For part of these data: Where a sequence is shown, tags or fusion partners need not be part of it.

For the first assay, the target named is T1, soybean eIF4E1 of cultivar Tianlong 1 fused to YN (pEarleyGate202-YN) (soybean (Glycine max)) (UniProt C6ZJZ3).
T1 sequence: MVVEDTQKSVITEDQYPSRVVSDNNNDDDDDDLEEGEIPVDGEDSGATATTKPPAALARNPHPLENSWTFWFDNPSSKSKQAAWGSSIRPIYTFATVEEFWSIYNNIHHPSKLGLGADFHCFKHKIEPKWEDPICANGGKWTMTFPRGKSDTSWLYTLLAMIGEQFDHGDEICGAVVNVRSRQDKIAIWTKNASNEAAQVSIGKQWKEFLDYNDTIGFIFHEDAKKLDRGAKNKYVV
Kind of assay: split reporter; BiFC (YFP halves): eIF4E1-YN and SMV-YC co-agroinfiltrated into leaves of 4-week-old N. benthamiana; confocal microscopy.
Consider “soybean mosaic virus (SMV) strain SC3 NIa-Pro fused to YC (pEarleyGate201-YC)”, for which the binding entry was “binds”.

As for “soybean mosaic virus (SMV) strain SC3 NIb fused to YC (pEarleyGate201-YC)”, the binding result is reported as “binds”.

“soybean mosaic virus (SMV) strain SC3 VPg fused to YC (pEarleyGate201-YC)”: the binding result was “binds”.

The target in a further assay is T2, soybean eIF4E1 (eukaryotic translation initiation factor 4E1) of cultivar Tianlong 1, bait in pBT3-STE (soybean (Glycine max)) (UniProt C6ZJZ3).
T2 sequence: T1 sequence
The assay can be described thus: two-hybrid; Matchmaker DUAL membrane system (Dualsystems Biotech); eIF4E1 as bait in pBT3-STE, SMV genes as preys in pPR3; S. cerevisiae NMY51; SD/−Leu/−Trp/−Ade/−His/+X-α-Gal, blue colonies positive.
As for “soybean mosaic virus (SMV) strain SC3 six kilodalton 1 protein (6K1), prey in pPR3”, the binding entry is “no binding”.

Consider “soybean mosaic virus (SMV) strain SC3 protein 1 (P1), prey in pPR3”, for which the binding entry was “no binding”.

Turning to “soybean mosaic virus (SMV) strain SC3 protein 3 (P3), prey in pPR3”, the binding result is “no binding”.

For “soybean mosaic virus (SMV) strain SC3 coat protein (CP), prey in pPR3”, the binding result is reported as “no binding”.

For “soybean mosaic virus (SMV) strain SC3 helper component-proteinase (HC-Pro), prey in pPR3”, the binding result was “no binding”.

In the case of “soybean mosaic virus (SMV) strain SC3 cylindrical inclusion protein (CI), prey in pPR3”, the binding result is listed as “no binding”.

Take “soybean mosaic virus (SMV) strain SC3 six kilodalton 2 protein (6K2), prey in pPR3”: the binding result is given as “no binding”.

With “soybean mosaic virus (SMV) strain SC3 viral genome-linked protein (VPg), prey in pPR3”, the binding entry was “binds”.

With “soybean mosaic virus (SMV) strain SC3 nuclear inclusion b (NIb), prey in pPR3”, the binding result is “binds”.
